# No constants are given. Whether binding was seen depends on the method and setting. For some of these results: In cells and extracts the contact can be indirect. Some binding calls cover weakened binding; strength is not graded here. Sequences can lack the tags named with a protein.
# T1: C2-TAP (S. cerevisiae) (UniProt P53901)
# T1 sequence: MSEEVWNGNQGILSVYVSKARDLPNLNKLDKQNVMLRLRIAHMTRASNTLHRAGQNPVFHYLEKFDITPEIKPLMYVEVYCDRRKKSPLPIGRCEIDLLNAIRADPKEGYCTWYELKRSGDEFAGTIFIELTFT
# T2: Inn1-TAP (S. cerevisiae) (UniProt P53901)
# T2 sequence: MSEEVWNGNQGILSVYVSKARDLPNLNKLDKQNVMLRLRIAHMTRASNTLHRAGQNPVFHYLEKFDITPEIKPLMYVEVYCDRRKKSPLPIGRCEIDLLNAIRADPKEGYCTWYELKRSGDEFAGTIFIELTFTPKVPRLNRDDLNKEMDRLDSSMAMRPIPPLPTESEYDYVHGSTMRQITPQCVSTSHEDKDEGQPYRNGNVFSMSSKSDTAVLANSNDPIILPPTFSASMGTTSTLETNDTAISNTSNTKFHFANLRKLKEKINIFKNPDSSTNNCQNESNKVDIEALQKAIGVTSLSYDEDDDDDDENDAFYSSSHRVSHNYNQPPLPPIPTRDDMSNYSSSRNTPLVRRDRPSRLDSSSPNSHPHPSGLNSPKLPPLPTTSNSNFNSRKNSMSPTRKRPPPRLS
# T3: Inn1 C-terminus-TAP (S. cerevisiae) (UniProt P53901)
# T3 sequence: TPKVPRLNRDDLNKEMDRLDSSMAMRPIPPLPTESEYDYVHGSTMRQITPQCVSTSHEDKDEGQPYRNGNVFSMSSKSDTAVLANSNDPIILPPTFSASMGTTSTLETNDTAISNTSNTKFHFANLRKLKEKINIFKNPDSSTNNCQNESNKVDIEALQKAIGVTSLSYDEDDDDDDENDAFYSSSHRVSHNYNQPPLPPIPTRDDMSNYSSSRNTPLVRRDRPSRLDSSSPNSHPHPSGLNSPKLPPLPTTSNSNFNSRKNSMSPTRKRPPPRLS
# T4: Chs2-215-629 (two-hybrid fusion) (S. cerevisiae) (UniProt P14180)
# T4 sequence: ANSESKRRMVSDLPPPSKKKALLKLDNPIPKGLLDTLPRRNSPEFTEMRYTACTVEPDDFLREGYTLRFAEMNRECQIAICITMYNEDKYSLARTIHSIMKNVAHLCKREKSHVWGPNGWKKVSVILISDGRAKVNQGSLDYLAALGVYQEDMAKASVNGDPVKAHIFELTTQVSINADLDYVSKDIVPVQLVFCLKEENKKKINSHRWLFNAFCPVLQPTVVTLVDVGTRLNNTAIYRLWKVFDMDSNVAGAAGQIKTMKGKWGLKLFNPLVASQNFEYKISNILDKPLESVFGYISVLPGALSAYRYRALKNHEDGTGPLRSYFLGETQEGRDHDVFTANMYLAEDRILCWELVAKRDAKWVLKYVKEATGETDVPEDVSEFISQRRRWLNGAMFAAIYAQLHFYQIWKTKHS
# T5: Chs2-1-629 (two-hybrid fusion) (S. cerevisiae) (UniProt P14180)
# T5 sequence: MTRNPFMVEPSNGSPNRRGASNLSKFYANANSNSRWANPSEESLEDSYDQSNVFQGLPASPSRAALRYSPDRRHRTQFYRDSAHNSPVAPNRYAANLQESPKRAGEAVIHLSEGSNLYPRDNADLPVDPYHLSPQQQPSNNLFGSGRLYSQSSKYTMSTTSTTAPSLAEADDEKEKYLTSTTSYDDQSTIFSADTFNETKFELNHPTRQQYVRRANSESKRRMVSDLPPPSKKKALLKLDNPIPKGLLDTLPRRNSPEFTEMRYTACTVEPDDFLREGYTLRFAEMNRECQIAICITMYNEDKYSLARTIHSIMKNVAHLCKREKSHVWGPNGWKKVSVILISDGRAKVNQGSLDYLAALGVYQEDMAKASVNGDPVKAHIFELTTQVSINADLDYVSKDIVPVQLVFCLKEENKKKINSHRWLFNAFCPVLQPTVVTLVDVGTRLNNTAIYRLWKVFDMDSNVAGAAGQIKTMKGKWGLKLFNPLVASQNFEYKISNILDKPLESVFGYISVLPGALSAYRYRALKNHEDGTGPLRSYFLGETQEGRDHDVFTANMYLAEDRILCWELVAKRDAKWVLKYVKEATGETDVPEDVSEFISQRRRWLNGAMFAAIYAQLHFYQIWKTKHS
# T6: Chs2-1-215 (two-hybrid fusion) (S. cerevisiae) (UniProt P14180)
# T6 sequence: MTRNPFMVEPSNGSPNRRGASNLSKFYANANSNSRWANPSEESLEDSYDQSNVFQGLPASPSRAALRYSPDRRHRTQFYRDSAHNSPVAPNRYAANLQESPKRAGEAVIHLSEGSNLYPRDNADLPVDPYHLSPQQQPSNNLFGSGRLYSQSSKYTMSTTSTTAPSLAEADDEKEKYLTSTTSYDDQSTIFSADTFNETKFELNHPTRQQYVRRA
# Columns and labels:
# C2-TAP (S. cerevisiae) = biological target: T1, C2-TAP (S. cerevisiae); assay: co-IP; yeast cell extracts 105 minutes after release from G1 arrest (alpha factor) at 24°C, cells in cytokinesis; TAP fusions immunoprecipitated on IgG beads; immunoblot
# Inn1-TAP (S. cerevisiae) [1] = biological target: T2, Inn1-TAP (S. cerevisiae); assay: as above
# [2] = biological target: T3, Inn1 C-terminus-TAP (S. cerevisiae); assay: as above
# Inn1-TAP (S. cerevisiae) [3] = biological target: T2, Inn1-TAP (S. cerevisiae); assay: co-IP; two steps: yeast extract 105 minutes after release from G1; Inn1-TAP on IgG beads, released with TEV protease (CBP stays on Inn1), then immunoprecipitation of Chs2-9MYC; immunoblot
# [4] = biological target: T4, Chs2-215-629 (two-hybrid fusion) (S. cerevisiae); assay: two-hybrid; vectors pGADT7 and pGBKT7 (Clontech); growth for two or three days at 30°C on Synthetic Complete medium lacking leucine, tryptophan and histidine (selective)
# [5] = biological target: T5, Chs2-1-629 (two-hybrid fusion) (S. cerevisiae); assay: as above
# [6] = biological target: T6, Chs2-1-215 (two-hybrid fusion) (S. cerevisiae); assay: as above
binding (C2-TAP (S. cerevisiae)),binding (Inn1-TAP (S. cerevisiae) [1]),binding [2],binding (Inn1-TAP (S. cerevisiae) [3]),binding [4],binding [5],binding [6],Binder
binds,binds,binds,binds,,,,"Chs2-9MYC (enzyme, UniProt P14180 1-963) MTRNPFMVEPSNGSPNRRGASNLSKFYANANSNSRWANPSEESLEDSYDQSNVFQGLPASPSRAALRYSPDRRHRTQFYRDSAHNSPVAPNRYAANLQESPKRAGEAVIHLSEGSNLYPRDNADLPVDPYHLSPQQQPSNNLFGSGRLYSQSSKYTMSTTSTTAPSLAEADDEKEKYLTSTTSYDDQSTIFSADTFNETKFELNHPTRQQYVRRANSESKRRMVSDLPPPSKKKALLKLDNPIPKGLLDTLPRRNSPEFTEMRYTACTVEPDDFLREGYTLRFAEMNRECQIAICITMYNEDKYSLARTIHSIMKNVAHLCKREKSHVWGPNGWKKVSVILISDGRAKVNQGSLDYLAALGVYQEDMAKASVNGDPVKAHIFELTTQVSINADLDYVSKDIVPVQLVFCLKEENKKKINSHRWLFNAFCPVLQPTVVTLVDVGTRLNNTAIYRLWKVFDMDSNVAGAAGQIKTMKGKWGLKLFNPLVASQNFEYKISNILDKPLESVFGYISVLPGALSAYRYRALKNHEDGTGPLRSYFLGETQEGRDHDVFTANMYLAEDRILCWELVAKRDAKWVLKYVKEATGETDVPEDVSEFISQRRRWLNGAMFAAIYAQLHFYQIWKTKHSVVRKFFLHVEFLYQFIQMLFSWFSIANFVLTFYYLAGSMNLVIKHGEALFIFFKYLIFCDLASLFIISMGNRPQGAKHLFITSMVILSICATYSLICGFVFAFKSLASGTESHKIFVDIVISLLSTYGLYFFSSLMYLDPWHMFTSSIQYFLTLPAFTCTLQIFAFCNTHDVSWGTKGSTQESKQLSKAIVVQGPDGKQIVETDWPQEVDKKFLEIKSRLKEPEFEESSGNEKQSKNDYYRDIRTRIVMIWMLSNLILIMSIIQVFTPQDTDNGYLIFILWSVAALAAFRVVGSMAFLFMKYLRIIVSYRNKVEGSGSWEVSKLDLPNVFHKKG"
,,,,no binding,binds,binds,"C-terminus of Inn1 (134-409) (two-hybrid fusion) (domain or fragment, UniProt P53901 134-409) TPKVPRLNRDDLNKEMDRLDSSMAMRPIPPLPTESEYDYVHGSTMRQITPQCVSTSHEDKDEGQPYRNGNVFSMSSKSDTAVLANSNDPIILPPTFSASMGTTSTLETNDTAISNTSNTKFHFANLRKLKEKINIFKNPDSSTNNCQNESNKVDIEALQKAIGVTSLSYDEDDDDDDENDAFYSSSHRVSHNYNQPPLPPIPTRDDMSNYSSSRNTPLVRRDRPSRLDSSSPNSHPHPSGLNSPKLPPLPTTSNSNFNSRKNSMSPTRKRPPPRLS"
